Measured values published in PubChem BioAssay AID1347076 (National Center for Advancing Translational Sciences (NCATS), 2019).
Hit rate of the full screen: of about 400,000 compounds, about 13,000 (3.2%) were called active. The shares of active, inactive and inconclusive entries below differ from those in the screen. The call rests on the fitted dose curve; in most records, active means well fitted cell-killing curve with a large enough effect; inconclusive means small, poorly fitted or top-dose-only effect, or effect the other way; inactive means flat fitted curve, though single readings scatter. Potencies beside an inconclusive call are fits to weak or partial responses and may not hold up.

assay: qHTS assay for MDR1-selective chemotherapeutics: Primary screen using the drug-selected MDR subline cells KB-V1; details: KB-V1 MDR cells viability, CellTiter-Glo, 72 h; activity change, negative = cytotoxicity: at 46.1 µM (top of the series); further: nearly all actives have a fitted effect of over 60% in size
Excerpt: A prime difficulty in effectively treating cancer is the development of cellular resistance to multiple structurally unrelated anticancer drugs, a phenomenon known as multidrug resistance (MDR). […] Numerous strategies to overcome P-gp-mediated MDR have been explored, including the design of drugs that evade recognition and efflux, and development of inhibitors to block efflux and restore drug accumulation. […] An alternative approach is to exploit resistance by identifying drugs that target MDR cells over the non-resistant parental cells from which they were selected. […] The development of MDR1-selective agents represents a new strategy for resolving multidrug resistance, as it remains a long-standing clinical challenge for cancer chemotherapy.
Our goal is to identify compounds that selectively kill P-gp-expressing MDR cells. We will identify MDR1-selective compounds by comparing toxicity of compounds in the screening library against parental, drug-naive (KB-3-1) adenocarcinoma cells as well as their drug-selected MDR sub-line (KB-V1). The differential toxicity of compounds against these two cell lines will be used to identify MDR1-selective compounds, whose cytotoxicity is potentiated, rather than diminished, by P-gp expression. This assay will be utilized to conduct a quantitative high-throughput screen (qHTS) in collaboration with the NIH Chemical Genomics Center to identify selective agents, and probe hits arising from the screen will be validated using secondary assays and characterized through a well-established follow-up research program. This screen was run against the entire NCGC library collection of about 400,000 compounds.
NIH Molecular Libraries Probe Production Network [MLPCN]
NIH Chemical Genomics Center [NCGC]
PI: Michael Gottesman, National Cancer Institute, NIH
Briefly, 5 microL of media containing either KB-V1 cells (columns 1-2, 4-48) are dispensed into Greiner white, treated solid-bottom 1536-well assay plates (media-only control is added to column 3). Compounds are then transferred via Kalypsys pin tool equipped with 1536-pin array (10 nL slotted pins, V&P Scientific, San Diego, CA). Following addition of compound, the plates are incubated at 37 degrees C for 72 hours. CellTiter-Glo (2.5 µL/well) is then added, and the plates are read in a ViewLux reader (Perkin-Elmer, clear luminescence filter, 1 second exposure, 1x binning) following a 10 minute incubation. All cells are dispensed in DMEM phenol-red free media containing 10% FBS.
Library plates were screened starting from the lowest and proceeding to the highest concentration. Vehicle-only plates, with DMSO being pin-transferred to columns 5-48, will be inserted uniformly at the beginning and the end of each library in order to monitor and record any shifts in the background, which can be affected by reagent dispensers or loss in enzyme activity over time. Screening data will be corrected, normalized, and concentration-effect relationships will be derived by using publicly-available NCGC, NCATS curve fitting algorithms (http://ncgc.nih.gov/pub/openhts).
On the % scale 0 is the no-effect control and ±100 the full control effect; potency means the concentration at half of the fitted maximal effect.

Structure (SMILES)	Potency	activity change, negative = cytotoxicity
COc1ccc([N+](=O)[O-])c(OC)c1C(=O)NC(=O)Nc1nc(C)cc(C)n1	inconclusive: 5.8 µM [cytotoxic, partial curve, poor fit]	
COc1nc(N(C)C)nc(N(C#N)S(=O)(=O)c2ccc(C)cc2)n1	inconclusive: 2.59 µM [rising, full curve, poor fit]	
Cc1ccc(NC(=S)N2CCCC(CO)C2)c(C)c1 (stereo not drawn)	inconclusive: 3.26 µM [rising, single point]	
C=CCC1C=C(C)CC(CC=C)N1 (stereo not drawn)		inactive: -9.94%
CC1CCCC(NC(=O)C2CCN(C(=O)Nc3ccccc3)CC2)C1C (stereo not drawn)		inactive: 6.37%
O=C(NCc1ccon1)C1CCC(=O)N(CCc2ccc(Cl)cc2)C1 (stereo not drawn)		inactive: -8.94%
Cn1c(=O)c2c(ncn2Cc2cc(-c3ccccc3)no2)n(C)c1=O	inconclusive: 14.6 µM [cytotoxic, partial curve, poor fit]	
COc1cccc(-c2cnc3c(NC=O)cc(-c4ccccc4Oc4ccccc4)cn23)c1	active: 20.6 µM	
O=C(CSc1cccc2cccnc12)Nc1ccc(S(=O)(=O)N2CCOCC2)cc1	inconclusive: 23.1 µM [cytotoxic, single point]	
O=C(CN1C(=O)COc2ccc(Cl)cc21)Nc1cccc(F)c1		inactive: 1.97%
CC(=O)c1ccc(N2CCN(Cc3nc(Cc4ccccc4)no3)CC2)cc1		inactive: -8.33%
O=C(NCc1ccc(Cl)c(Cl)c1)c1cc(C2CCCCN2C(=O)c2ccccc2)on1 (stereo not drawn)	inconclusive: 29.1 µM [cytotoxic, single point]	
Cc1c(NS(=O)(=O)c2ccc(N3CCCCC3)c([N+](=O)[O-])c2)c(=O)n(-c2ccccc2)n1C	inconclusive: 18.4 µM [cytotoxic, single point]	
COc1ncnc2c1ncn2CCCNCc1ccccc1		inactive: -2.25%
Cc1cccc(OCCCn2c(=O)oc3ccc(C)cc32)c1	inconclusive: 9.2 µM [cytotoxic, partial curve]	
CC(=O)Nc1ccc(S(=O)(=O)Oc2ccc(/C=C3\SC(N)=NC3=O)cc2)cc1		inactive: 1.99%
O=C(c1ccco1)N1CCN(c2ccc(Cl)c(Cl)c2)CC1	inconclusive: 29.1 µM [cytotoxic, single point]	
Cc1sc2ncn(CC(=O)Nc3cccc(C(F)(F)F)c3)c(=O)c2c1S(=O)(=O)N1CCN(C)CC1		inactive: 9.11%
Cc1cccc(C)c1NC(=O)C(c1ccccc1)n1c(=O)c(-c2ccco2)nc2ccccc21 (stereo not drawn)	inconclusive: 18.4 µM [cytotoxic, partial curve]	
Oc1ccc(/C=N/n2c(-c3ccco3)csc2=Nc2cccnc2)c(O)c1	inconclusive: 20.6 µM [cytotoxic, single point]	
CC12CC(O)C3c4ccc(O)cc4CCC3C1CC/C2=N\O (stereo not drawn)	inconclusive: 0.0651 µM [rising, single point]	
Oc1c(Br)cc(Br)cc1C=NCc1ccccc1		inactive: 4.49%
COc1ccc(S(=O)(=O)NCc2ccccn2)cc1NC(=O)c1ccccc1C	inconclusive: 20.6 µM [cytotoxic, single point]	
CN(c1ccc(F)cc1)S(=O)(=O)N1CCCC(C(=O)NCc2cccc(Br)c2)C1 (stereo not drawn)	inconclusive: 16.4 µM [cytotoxic, single point]	

Sorted by length of the SMILES (falling): three of the compounds above
Structure (SMILES)	Potency	activity change, negative = cytotoxicity
Cc1c(NS(=O)(=O)c2ccc(N3CCCCC3)c([N+](=O)[O-])c2)c(=O)n(-c2ccccc2)n1C	inconclusive: 18.4 µM [cytotoxic, single point]	
COc1ccc(S(=O)(=O)NCc2ccccn2)cc1NC(=O)c1ccccc1C	inconclusive: 20.6 µM [cytotoxic, single point]	
CC(=O)c1ccc(N2CCN(Cc3nc(Cc4ccccc4)no3)CC2)cc1		inactive: -8.33%

(cont.)

Structure (SMILES)	Potency	activity change, negative = cytotoxicity
COc1cc(CNc2ccc(N3CCCCC3)cc2)ccc1OCC(=O)NC(C)(C)C	inconclusive: 2.91 µM [cytotoxic, partial curve, poor fit]	
c1ccc2c(CN3CCOCC3)c3ccccc3c(CN3CCOCC3)c2c1		inactive: 16%
COc1cccc2cc(C(=O)NCc3ccco3)c(=Nc3ccc(C(=O)O)cc3)oc12	inconclusive: 25.9 µM [rising, partial curve]	
CC1C(=O)N(Cc2cn(CCC3OCCO3)nn2)CCS(=O)(=O)N1Cc1ccc(-c2ccc(F)nc2)cc1 (stereo not drawn)		inactive: -0.943%
COc1ccc(CN(C)C(=O)Cc2c[nH]c3ccccc23)c(OC)c1OC	inconclusive: 20.6 µM [cytotoxic, single point]	
O=C(CN1C(=O)C2CCCN2c2ncc(Cl)cc21)NCc1ccc2c(c1)OCO2 (stereo not drawn)		inactive: -10.1%
COc1ccc(-n2c(-c3ccc(Br)cc3)c[n+]3c2CCC3)cc1		inactive: -17.6%
O=C(NCCN1CCCC1)c1ccccc1Cl		inactive: -28.2%
Cc1nc2c(OCc3ccc(OC(F)F)cc3)cccn2c1N(C)C(=O)CCC1CCCC1	inconclusive: 29.1 µM [cytotoxic, single point]	
c1ccc(CCNc2nc(-c3ccncc3)nc3ccccc23)cc1	active: 14.6 µM	
Cc1oc(-c2ccccc2)nc1CS(=O)CC(=O)NC1CCCCCC1 (stereo not drawn)		inconclusive: -27.3%
Cc1cc(C(=O)Nc2ccc(N3CCCC3)c(Cl)c2)ccc1[N+](=O)[O-]		inactive: -20.7%
COCCN1C(=O)CN(S(C)(=O)=O)CC1(C)C(=O)Nc1ccc2c(c1)OCCO2 (stereo not drawn)		inactive: 8.88%
c1ccc(-c2ccc(C3=Nn4c(nnc4-c4cc(-c5ccccc5)n[nH]4)SC3)cc2)cc1	active: 16.4 µM	
COc1ccc(-c2nnnn2-c2ccccc2OC)cc1	active: 13 µM	
Cc1ccnc2ccc(N)cc12		inactive: 6.95%
CC(C)[C@H](NC(=O)C1CC(=O)N(c2ccc(F)cc2)C1)C(=O)N1CCCCC1 (stereo partly drawn)		inactive: -19.3%
CS(=O)(=O)c1ccccc1C(=O)N(CCC1=CCCCC1)c1c(N)n(Cc2ccccc2)c(=O)[nH]c1=O		inactive: -15.3%
CN(CC(=O)Nc1ccccc1Br)C(=O)Cn1[nH]c(=O)c2ccccc2c1=O		inconclusive: -21.1%
Cc1cccc(OCCCC(=O)O)c1	inconclusive: 10.3 µM [rising, partial curve]	
Clc1cccc(Nc2nc(-c3ccncc3)cs2)c1	inconclusive: 20.6 µM [cytotoxic, single point]	
CSc1cccc(CNC(=O)C2CCC(=O)N(CC3CCCCC3)C2)c1 (stereo not drawn)	inconclusive: 8.2 µM [cytotoxic, partial curve]	
O=C(CC1CCCCC1)N1CCC(c2nc(-c3ccc(S(=O)(=O)N4CCCC4)cc3)no2)CC1	active: 14.6 µM	
CCN(CC)S(=O)(=O)c1cccc(NC(=O)CSc2nc3ccccc3[nH]2)c1	inconclusive: 32.6 µM [cytotoxic, single point]	
